Values from PubChem BioAssay AID652272 (Drosophila RNAi Screening Center, 2013)
Assay: 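Finding fly genes that regulate Hedgehog signal transduction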 (primary screen). Cell system: Drosophila clone 8 (Cl8) cells. Reagents: long dsRNA against Drosophila genes. Measured: 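Plate reader light from a firefly reporter under a ptc promoter fragment that responds to Hedgehog, with Renilla light as transfection reference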. Reading the numbers: firefly Hh reporter signal: higher = more ptc reporter light; Renilla reference signal: higher = more Renilla control light. Call rule: 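Hit when the z-score averaged over two replicates is under -2 or over +3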. Calls: active = hit: reporter lowered or raised; inactive = not a hit.
The screen tested about 21,000 reagents; shown is an unselected part of those that have a named target and a result. Over the whole deposit, 503 (2.4%) were called active. 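Raw plate light values, not normalised; calls rest on replicate z-scores that were not deposited; hits include reporter decreases as well as increases.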 A plus sign joins genes that one reagent is predicted to hit. Not stated in the record: the amount of reagent, the time to read-out.

| Gene | dsRNA | firefly Hh reporter signal, replicate 1 | firefly Hh reporter signal, replicate 2 | firefly Hh reporter signal, replicate 3 | Renilla reference signal, replicate 1 | Renilla reference signal, replicate 2 | outcome |
| --- | --- | --- | --- | --- | --- | --- | --- |
| CG9928 | DRSC03274 | 1.05e5 | 37609 | – | 2621 | 3410 | inactive |
| Fgop2 | DRSC02016 | 40052 | 54981 | – | 2250 | 2644 | inactive |
| CG7745 | DRSC07037 | 54968 | 36913 | – | 2330 | 1450 | inactive |
| CG30416 | DRSC04565 | 93640 | 77192 | – | 1869 | 7273 | inactive |
| CG11404 | DRSC11656 | 1.09e5 | 1.16e5 | – | 4185 | 1959 | inactive |
| CG3251 | DRSC00586 | 89829 | 41280 | – | 2468 | 3483 | inactive |
| coil | DRSC07242 | 65552 | 48921 | – | 2713 | 2016 | inactive |
| Tektin-A | DRSC01921 | 74993 | 34986 | – | 3282 | 1833 | inactive |
| CG6665 | DRSC07006 | 1.18e5 | 1.01e5 | – | 5485 | 4192 | inactive |
| Xxylt | DRSC04107 | 1.04e5 | 1.28e5 | – | 4730 | 5196 | inactive |
| Cpr73D | DRSC11084 | 86461 | 50346 | – | 4240 | 2568 | inactive |
| Sk1 | DRSC19774 | 61036 | 1.19e5 | – | 2737 | 5848 | inactive |
| tna | DRSC09053 | 1.27e5 | 2.73e5 | – | 7549 | 9832 | inactive |
| tna | DRSC10937 | 87809 | 52948 | 25307 | 6961 | 2885 | inactive |
| SIDL | DRSC16077 | 1.11e5 | 85763 | – | 4432 | 3300 | inactive |
| ArgRS | DRSC20138 | 74613 | 1.97e5 | – | 3276 | 8593 | inactive |
| CG15120 | DRSC06542 | 87574 | 66797 | – | 1779 | 4326 | inactive |
| CG14646 | DRSC12232 | 1.76e5 | 7.10e5 | 1.05e5 | 6402 | 38692 | inactive |
| CG9849 | DRSC04573 | 1.19e5 | 98153 | – | 3211 | 8602 | inactive |
| dnc | DRSC17758 | 1.00e5 | 84146 | – | 3463 | 3408 | inactive |
| dnc | DRSC17759 | 77253 | 1.40e5 | – | 2880 | 5399 | inactive |
| dnc | DRSC17911 | 86583 | 2.39e5 | – | 3601 | 9210 | inactive |
| dnc | DRSC18763 | 1.15e5 | 3.52e5 | – | 4448 | 12736 | inactive |
| dnc | DRSC18764 | 97288 | 2.84e5 | – | 2773 | 11432 | inactive |
| ox | DRSC07520 | 78589 | 55009 | – | 1364 | 3431 | inactive |
| CG12605 | DRSC08286 | 67384 | 54802 | – | 2050 | 3792 | inactive |
| fend | DRSC17601 | 5.58e5 | 1.32e5 | – | 29666 | 2552 | inactive |
| fend | DRSC17867 | 1.07e5 | 4.59e5 | – | 3504 | 15621 | inactive |
| CG12784 | DRSC14539 | 82633 | 83872 | – | 3033 | 2566 | inactive |
| Tep5Psi | DRSC02183 | 88336 | 59766 | – | 2208 | 5617 | inactive |
| Tep5Psi | DRSC02184 | 87204 | 69173 | – | 2113 | 5396 | inactive |
| CG14731 | DRSC14952 | 1.60e5 | 1.65e5 | – | 5205 | 5110 | inactive |
| mkg-p | DRSC10777 | 71168 | 51306 | – | 4169 | 2073 | inactive |
| CG13898 | DRSC08368 | 76568 | 53991 | – | 3093 | 3702 | inactive |
| CG3301 | DRSC15471 | 98308 | 83401 | – | 3756 | 3130 | inactive |
| MRG15 | DRSC16731 | 82501 | 82864 | – | 3473 | 3200 | inactive |
| HBS1 | DRSC08544 | 99565 | 1.06e5 | – | 4331 | 3768 | inactive |
| Usf | DRSC18129 | 91623 | 2.64e5 | – | 3783 | 10144 | inactive |
| CG16723 | DRSC15138 | 4.34e5 | 87817 | – | 22948 | 2872 | inactive |
| CG34193 | DRSC05665 | 78724 | 1.74e5 | – | 2624 | 7048 | inactive |
| CG9010 | DRSC07320 | 89002 | 66617 | – | 3947 | 2640 | inactive |
| Mtpbeta | DRSC04663 | 1.29e5 | 87157 | – | 4884 | 3272 | inactive |
| Eip63F-1 | DRSC08072 | 1.17e5 | 2.72e5 | – | 9499 | 10695 | inactive |
| Eip63F-1 | DRSC08659 | 1.29e5 | 87069 | – | 3240 | 5632 | inactive |
| Ate1 | DRSC05925 | 1.50e5 | 1.11e5 | – | 6818 | 4482 | inactive |
| CYTB (retired record) | DRSC21272 | 1.16e5 | 2.34e5 | – | 4106 | 10125 | inactive |
| Cht7 | DRSC08538 | 83108 | 53416 | – | 2938 | 2448 | inactive |
| wrm1 + wrm2 | DRSC11007 | 1.54e5 | 98825 | – | 5676 | 3965 | inactive |
| Gycbeta100B | DRSC14039 | 4.65e5 | 1.85e5 | – | 23712 | 4166 | inactive |
| Gycbeta100B | DRSC14040 | 4.15e5 | 1.83e5 | – | 20977 | 3556 | inactive |
| Gycbeta100B | DRSC16691 | 1.25e5 | 1.31e5 | – | 768 | 3940 | inactive |
| enc | DRSC08716 | 61890 | 33973 | – | 1932 | 2149 | inactive |
| Spn42De | DRSC05011 | 73078 | 49546 | – | 1186 | 3741 | inactive |
| Brr2 | DRSC10559 | 39788 | 17264 | – | 2816 | 1280 | active |
| btl | DRSC11331 | 78051 | – | – | 5728 | 2272 | inactive |
| Osi10b | DRSC12279 | 70073 | 97528 | – | 2867 | 2765 | inactive |
| CG5565 | DRSC00690 | 1.02e5 | 76146 | – | 2534 | 1920 | inactive |

Reprinted from above for reference:
| Gene | dsRNA | firefly Hh reporter signal, replicate 1 | firefly Hh reporter signal, replicate 2 | firefly Hh reporter signal, replicate 3 | Renilla reference signal, replicate 1 | Renilla reference signal, replicate 2 | outcome |
| --- | --- | --- | --- | --- | --- | --- | --- |
| Gycbeta100B | DRSC14039 | 4.65e5 | 1.85e5 | – | 23712 | 4166 | inactive |
| Gycbeta100B | DRSC14040 | 4.15e5 | 1.83e5 | – | 20977 | 3556 | inactive |
| Gycbeta100B | DRSC16691 | 1.25e5 | 1.31e5 | – | 768 | 3940 | inactive |
| enc | DRSC08716 | 61890 | 33973 | – | 1932 | 2149 | inactive |
| Spn42De | DRSC05011 | 73078 | 49546 | – | 1186 | 3741 | inactive |
| Brr2 | DRSC10559 | 39788 | 17264 | – | 2816 | 1280 | active |
| btl | DRSC11331 | 78051 | – | – | 5728 | 2272 | inactive |
